{"sequences": {"note": "Sequences of proteins named here, by UniProt entry; tags and fusion partners are left off. A change or cut given only in a name is not applied to a line headed by its entry.", "UniProt Q9PVE4": "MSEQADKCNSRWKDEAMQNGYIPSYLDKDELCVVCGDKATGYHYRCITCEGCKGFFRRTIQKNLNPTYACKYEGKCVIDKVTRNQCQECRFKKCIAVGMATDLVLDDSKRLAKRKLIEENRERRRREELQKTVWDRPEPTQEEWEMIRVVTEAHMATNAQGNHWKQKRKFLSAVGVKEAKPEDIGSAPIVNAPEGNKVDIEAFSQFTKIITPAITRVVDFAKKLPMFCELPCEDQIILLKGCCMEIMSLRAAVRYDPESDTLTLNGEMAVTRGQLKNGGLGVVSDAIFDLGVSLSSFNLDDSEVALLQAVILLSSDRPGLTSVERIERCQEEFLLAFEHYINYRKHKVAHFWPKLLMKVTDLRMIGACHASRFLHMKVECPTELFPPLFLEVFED"}, "source": "PubChem BioAssay (EPA / NIEHS)", "note": "Where “and” joins values, the source holds several entries; their conditions need not be identical. Equal entries are not always repeated. Inconclusive results, whose numbers are uncertain, are shown with a selection of clear calls. Where the call is inconclusive, the potency comes from a doubtful curve fit. Calls of active or inactive are those of the source. Rule for the calls: active = hit-call score of the fitted dose curve at least 0.9, where 1 is the maximum; inconclusive = response in the unintended direction; inactive = score below 0.9.", "data": [{"target": "zebrafish Thyroid Hormone Receptor beta (TRb), thrb (gene 30607) (UniProt Q9PVE4)", "assay": "ATG_zfTRb_XSP2: Attagene TRANS-FACTORIAL Multi-Species (XSP1) HepG2 Assay for zebrafish Thyroid Hormone Receptor beta (TRb) (AID 2283836);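 for AC50: potency for induction of reporter signal above DMSO so agonist direction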", "protocol": "ATG_XSP2_multi-species_TRANS is a cell-based, multiplexed assay created by modifying the existing Attagene TRANS-FACTORIAL system to include a panel of nuclear receptors from some or all the following species: human (Homo sapiens), mouse (Mus musculus), frog (Xenopus laevis), zebrafish (Danio rerio), chicken (Gallus gallus), and turtle (Chrysemys picta). The ECOTOX-FACTORIAL format uses HepG2, a human liver cell line, with measurements taken at 24 hours after chemical dosing in a 24-well plate. Xsp2 included 3 nM 6-alpha-fluorotestosterone and 1.5 nM norgestrel to stimulate the androgen receptor.ATG_zfTRb_XSP2 is one of 29 assay components measured or calculated from the ATG_XSP2_multi-species_TRANS assay. It is designed to make measurements of mRNA induction, a form of inducible reporter, as detected with fluorescence intensity signals by Reverse transcription polymerase chain reaction (RT-PCR) and Capillary electrophoresis technology.The assay endpoint ATG_zfTRb_XSP2 was analyzed in the positive analysis fitting direction relative to DMSO as the negative control and baseline of activity. Using a type of inducible reporter, measures of mRNA for gain-of-signal activity can be used to understand the reporter gene at the transcription factor-level as they relate to the gene TR. Furthermore, this assay endpoint can be referred to as a primary readout, because this assay has produced multiple assay endpoints where this one serves a reporter gene function. To generalize the intended target to other relatable targets, this assay endpoint is annotated to the nuclear receptor intended target family, where the subfamily is non-steroidal.\nHuman liver HepG2 cells are transiently transfected with multiple reporter transcription units (MRTUs) in 6-well plates using FuGene 6 reagent (Roche; 3 ml FuGene/1 mg DNA). The MRTU constructs are regulated by a cis-regulating element (promoter). […] A major difference between the CIS and TRANS system is that in CIS activities of endogenous TFs are measured, whereas the TRANS assay evaluates changes in activities of exogenous, chimeric NR-Gal4 proteins. […] At the end of 24 hour incubation, total RNA was isolated using TriZol reagent (Invitrogen). The isolated RNA is then reverse-transcribed using oligo(dT) primer and Mo-MLV reverse transcriptase (Invitrogen) with DNAse I (Ambion) treatment for 30 min. The one-tenth of the produced cDNA was amplified by PCR using Taq DNA polymerase (Invitrogen) and two reporter sequence-specific primers. The PCR products were fluorescently labeled by primer extension with 6-arboxyfluorescein (6-FAM) 5'-labeled reporter sequence-specific primer (2 min at 95 C, 20 s at 68 C and 10 min at 72 C) and these products were digested with 5U of HpaI (New England Biolabs) for 2h at 37 C. The fragments were purified using Qiaquick PCR columns (Qiagen), analyzed on an ABI 3130xL genetic analyzer (Applied Biosystems) with peak positions identified by using a set of X-rhodamine (ROX)-labeled MapMarker1000 molecular weight standards (BioVentures). The raw capillary electrophoresis data was processed using Attagraph software (Attagene).", "values": [{"smiles": "CC(C)C(=O)Nc1ccc([N+](=O)[O-])c(C(F)(F)F)c1", "AC50": "active: 65.2 µM"}, {"smiles": "O=c1cc(-c2ccc(O)cc2)oc2cc(O)cc(O)c12", "outcome": "inactive"}, {"smiles": "CCC(=C(c1ccc(O)cc1)c1ccc(OCCN(C)C)cc1)c1ccccc1", "AC50": "inconclusive: 7.2 µM"}, {"smiles": "COc1ccc(-c2coc3cc(O)cc(O)c3c2=O)cc1", "outcome": "inactive"}, {"smiles": "CC1(C)C(C=C(Cl)Cl)C1C(=O)OCc1cccc(Oc2ccccc2)c1", "note": "(stereo unspecified)", "AC50": "inconclusive: 100 µM"}, {"smiles": "CCCCCC(=O)O[C@]1(C(C)=O)CC[C@H]2[C@@H]3CCC4=CC(=O)CC[C@]4(C)[C@H]3CC[C@@]21C", "AC50": "inconclusive: 48.3 µM"}, {"smiles": "Cc1c(C)c2c(c(C)c1O)CCC(C)(COc1ccc(CC3SC(=O)NC3=O)cc1)O2", "note": "(stereo unspecified)", "AC50": "active: 2.66 µM"}, {"smiles": "Cc1c2ccccc2c(C)c2c1ccc1ccccc12", "AC50": "inconclusive: 60.7 µM"}, {"smiles": "COc1ccc(C(=O)c2ccccc2)c(O)c1", "outcome": "inactive"}, {"smiles": "O=C(O)Cc1cc(I)c(Oc2cc(I)c(O)c(I)c2)c(I)c1", "AC50": "active: 45.5 nM and active: 14.4 nM"}, {"smiles": "O=C(OCCOCCOCCOC(=O)c1ccccc1)c1ccccc1", "outcome": "inactive"}, {"smiles": "COC(=O)c1c(C)cc(O)c(C)c1O", "AC50": "inconclusive: 100 µM"}, {"smiles": "N[C@@H](Cc1cc(I)c(Oc2ccc(O)c(I)c2)c(I)c1)C(=O)O", "AC50": "active: 0.339 nM and active: 77 nM"}, {"smiles": "C=C1C[C@H]2[C@@H]3C=C(C)C4=CC(=O)CC[C@]4(C)[C@H]3CC[C@]2(C)[C@@]1(OC(C)=O)C(C)=O", "AC50": "inconclusive: 65 µM and inconclusive: 63 µM"}, {"smiles": "CC(CCC(=O)O)(c1ccc(O)cc1)c1ccc(O)cc1", "AC50": "inconclusive: 0.279 µM"}, {"smiles": "O=c1c(-c2ccc(O)cc2)coc2cc(O)ccc12", "AC50": "inconclusive: 10 µM"}, {"smiles": "CSC(=O)c1cccc2nnsc12", "AC50": "inconclusive: 0.0823 µM"}, {"smiles": "Oc1cc2ccccc2c2ccccc12", "AC50": "inconclusive: 33.4 µM and active: 33.4 µM"}, {"smiles": "CC(C)CCCCCCc1ccc(O)cc1", "AC50": "inconclusive: 10 µM"}, {"smiles": "Oc1ccc(-c2ccccc2)c(Cl)c1", "outcome": "inactive"}, {"smiles": "CCCCCCCCOC(=O)c1ccc(O)cc1", "AC50": "inconclusive: 0.00914 µM"}]}]}
